The results in this text go back to patent publication US20250288599A1, “PHARMACEUTICAL COMPOSITIONS AND METHODS FOR TREATING OSTEOARTHRITIS” (INSIGNIA PHARMACEUTICALS, LLC, priority 2024, published 2025).

Test [1] relates to IL-1β release from human THP1 macrophages. Kind of test: Two-hit (LPS then ATP) inflammasome activation model, IL-1β release from THP1 macrophages. The following applies: THP-1, Dex phosphate alone, 1 picomolar to 10 micromolar. Type of test: cell-based. The source says:
The proinflammatory cytokine, IL-1β, is released from cells upon activation of the inflammasome, a multi-protein proinflammatory complex. A two-hit model of inflammasome activation in THP1 macrophages was developed that entails an overnight stimulation with LPS followed by a second proinflammatory stimulus, extracellular ATP, which drives inflammasome assembly and subsequent IL-1β release from the cells into the media.

The subject of test [2] is Elastin (ELN) expression in normal human dermal fibroblasts (NHDF). Kind of test: ELN mRNA in NHDF activated with TGF-β1 or IL-1β, 24 h, qRT-PCR. The test is classed as cell-based. The following applies: 100 mM Lac or 0.1 mM Dxp. Here is the method:
(§1) To serve as a control, cells were also treated with 0.1 mM Dex-21-phosphate (Dxp or Dex). After 24 hours, total mRNA was isolated and delta-delta Cp relative expression was calculated versus untreated medium controls, normalized to the housekeeping gene, GAPDH. Statistical analysis was then conducted via t-test.
A general note: Real-time PCR tracks product formation cycle by cycle.

The test system of test [3] is MMP3 expression in normal human dermal fibroblasts (NHDF). Kind of test: MMP3 mRNA in NHDF activated with IL-1β, 24 h, qRT-PCR. The test is classed as cell-based. The following applies: IL-1β 0.1 ng/ml, 100 mM Lac or 0.1 mM Dxp, IL-1β alone 3.5±1.7. As for the experimental part:
as §1

Test [4] deals with MMP12 expression in normal human dermal fibroblasts (NHDF). Kind of test: MMP12 mRNA in NHDF activated with IL-1β, 24 h, qRT-PCR. The test is classed as cell-based. Particulars: IL-1β 0.1 ng/ml, 100 mM Lac or 0.1 mM Dxp, IL-1β alone 17.8±12.3. As for the experimental part: as §1
In test [5] the test system is SOX9 expression in human osteoarthritic chondrocytes. Kind of test: SOX9 relative expression in high and low passage osteoarthritic chondrocytes, 7, 14 or 28 days. Type of test: cell-based. The following applies: low passage osteoarthritic chondrocytes; 7, 14, 28 days. The source says:
Media was exchanged bi-weekly. […] SOX9 is a transcription factor vital to the development and maintenance of cartilage and is required for chondrogenesis. SOX9 promotes chondrocyte survival and transcriptionally activates cartilage-specific genes. SOX9 is repressed in hypertrophic chondrocytes (i.e. terminally differentiated osteoblast-like cells).

The subject of test [6] is Col2a1 expression in low passage osteoarthritic chondrocytes. Kind of test: Col2a1 relative expression in low passage osteoarthritic chondrocytes. The following applies: day 28. Type of test: cell-based, human.
Test [7] concerns Col2a1 expression in human osteoarthritic chondrocytes. Kind of test: Col2a1 relative expression in human osteoarthritic chondrocytes (passage 5) cultured 27 days. The following applies: 50 micromolar Dec, 0.1 μM Dxp, 100 mM Lac. The test is classed as cell-based. Here is the method: (§2) To evaluate the biological ramifications of the SOX9 to RUNX2 regulation mentioned above, delta-delta relative gene expression was assessed against medium controls, with normalization to GAPDH for both Col2a1 and Col1a1 in the samples tested with reference to Example 15. […] Moreover, treatment with 100 mM Lac increased collagen expression (49.88±4.31 and 1.63±0.20 for Col2a1 and Col1a1, respectively; FIGS. 51 and 52).

For test [8], the system named is Col1a1 expression in human osteoarthritic chondrocytes. Kind of test: Col1a1 relative expression in human osteoarthritic chondrocytes (passage 5) cultured 27 days. Type of test: cell-based. Particulars: 50 micromolar Dec, 0.1 μM Dxp, 100 mM Lac. Here is the method: as §2

A word on the IC50: it is the concentration at which inhibition is half-maximal. Lower therefore signals higher potency. `C[C@@H]1C[C@H]2[C@@H]3CCC4=CC(=O)C=C[C@]4(C)[C@@]3(F)[C@@H](O)C[C@]2(C)[C@@]1(O)C(=O)COP(=O)(O)O` [Dxp, dexamethasone phosphate, reference compound] yielded an IC50 in test [1] of 0.046 µM. For the same compound, the “relative expression of ELN” value in test [2] (IL-1β 0.1 ng/ml, IL-1β alone 18±12, n=3) is on record as 7.8+4; in test [2] (TGF-β1 10 ng/ml, TGF-β1 alone 110±35, n=3), 78±14. Also, the “relative expression of MMP3” value in test [3] is reported as 0.6±1.5. In addition, the “relative expression of MMP12” value in test [4] is on record as 1.7±0.6. The “ratio of SOX9/RUNX2” value in test [5] is reported as “reduced”. Moreover, the “relative expression of Col2a1” value in test [6] is reported as “reduction”. In addition, in test [7], the “Col2a1 delta-delta relative gene expression” value is recorded as −25.99±13.34 fold. Also, in test [8], the “Col1a1 delta-delta relative gene expression” value was −1.44±0.17 fold.
